# Data reported in the supplement of paper PMC8728848.
# This is one part of the list.
# Tests used:
# Test in all cases: glycan array binding signal (z-score within array); higher = stronger binding
# Conditions in all cases: glycan notation: IUPAC condensed, linker removed
# [1] = molecular target: Fuc(a1-2)Gal(b1-4)[Fuc(a1-3)]GlcNAc(b1-2)Man(a1-3)[Fuc(a1-2)Gal(b1-4)[Fuc(a1-3)]GlcNAc(b1-2)Man(a1-6)]Man(b1-4)GlcNAc(b1-4)[Fuc(a1-6)]GlcNAc
# Summary of the method: (§1)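 Glycan array binding is given as a within-array Z-score, which can be read as non-binding when negative. The arrays, 3228 of them, came from the Consortium for Functional Glycomics database and were retained only where the protein sequence was available. Z-scores were averaged across arrays of the same protein sequence at different concentrations or buffers and across linkers.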
# [2] = molecular target: Fuc(a1-2)Gal(b1-4)[Fuc(a1-3)]GlcNAc(b1-2)[Fuc(a1-2)Gal(b1-4)[Fuc(a1-3)]GlcNAc(b1-4)]Man(a1-3)[Fuc(a1-2)Gal(b1-4)[Fuc(a1-3)]GlcNAc(b1-2)Man(a1-6)]Man(b1-4)GlcNAc(b1-4)GlcNAc
# Summary of the method: as §1
# [3] = molecular target: Fuc(a1-2)Gal(b1-4)[Fuc(a1-3)]GlcNAc(b1-3)Gal(b1-4)[Fuc(a1-3)]GlcNAc
# Summary of the method: as §1
# [4] = molecular target: Fuc(a1-2)Gal(b1-4)[Fuc(a1-3)]GlcNAc(b1-3)Gal(b1-4)[Fuc(a1-3)]GlcNAc(b1-3)Gal(b1-4)[Fuc(a1-3)]GlcNAc
# Summary of the method: as §1
# [5] = molecular target: Fuc(a1-2)Gal(b1-4)[Fuc(a1-3)]GlcNAc(b1-3)GalNAc
# Summary of the method: as §1
# [6] = molecular target: Fuc(a1-2)Gal(b1-4)[Fuc(a1-3)]GlcNAc(b1-3)[Neu5Ac(a2-6)Gal(b1-4)GlcNAc(b1-6)]Gal(b1-4)Glc
# Summary of the method: as §1
# [7] = molecular target: Fuc(a1-2)Gal3S(b1-4)GlcNAc
# Summary of the method: as §1
# [8] = molecular target: Fuc(a1-2)Gal6S(b1-3)GlcNAc
# Summary of the method: as §1
# [9] = molecular target: Fuc(a1-2)Gal6S(b1-3)GlcNAc6S
# Summary of the method: as §1
# Fuc(a1-2)Gal6S(b1-4)Glc = molecular target: Fuc(a1-2)Gal6S(b1-4)Glc
# Summary of the method: as §1
# [10] = molecular target: Fuc(a1-2)Gal6S(b1-4)Glc6S
# Summary of the method: as §1
# Fuc(a1-2)[Gal(a1-3)]Gal = molecular target: Fuc(a1-2)[Gal(a1-3)]Gal
# Summary of the method: as §1
# [11] = molecular target: Fuc(a1-2)[Gal(a1-3)]Gal(b1-3)GalNAc
# Summary of the method: as §1
# [12] = molecular target: Fuc(a1-2)[Gal(a1-3)]Gal(b1-3)GalNAc(b1-3)Gal(a1-4)Gal(b1-4)Glc
# Summary of the method: as §1
# [13] = molecular target: Fuc(a1-2)[Gal(a1-3)]Gal(b1-3)GlcNAc
# Summary of the method: as §1
# [14] = molecular target: Fuc(a1-2)[Gal(a1-3)]Gal(b1-3)GlcNAc(b1-2)Man(a1-3)[Fuc(a1-2)[Gal(a1-3)]Gal(b1-3)GlcNAc(b1-2)Man(a1-6)]Man(b1-4)GlcNAc(b1-4)GlcNAc
# Summary of the method: as §1
# [15] = molecular target: Fuc(a1-2)[Gal(a1-3)]Gal(b1-3)GlcNAc(b1-2)Man(a1-3)[Fuc(a1-2)[Gal(a1-3)]Gal(b1-3)GlcNAc(b1-2)Man(a1-6)]Man(b1-4)GlcNAc(b1-4)[Fuc(a1-6)]GlcNAc
# Summary of the method: as §1
# [16] = molecular target: Fuc(a1-2)[Gal(a1-3)]Gal(b1-3)GlcNAc(b1-3)GalNAc
# Summary of the method: as §1
# [17] = molecular target: Fuc(a1-2)[Gal(a1-3)]Gal(b1-3)GlcNAc(b1-6)GalNAc
# Summary of the method: as §1
# [18] = molecular target: Fuc(a1-2)[Gal(a1-3)]Gal(b1-4)Glc
# Summary of the method: as §1
# [19] = molecular target: Fuc(a1-2)[Gal(a1-3)]Gal(b1-4)GlcNAc
# Summary of the method: as §1
# [20] = molecular target: Fuc(a1-2)[Gal(a1-3)]Gal(b1-4)GlcNAc(b1-2)Man
# Summary of the method: as §1
# [21] = molecular target: Fuc(a1-2)[Gal(a1-3)]Gal(b1-4)GlcNAc(b1-2)Man(a1-3)[Fuc(a1-2)[Gal(a1-3)]Gal(b1-4)GlcNAc(b1-2)Man(a1-6)]Man(b1-4)GlcNAc(b1-4)GlcNAc
# Summary of the method: as §1
# [22] = molecular target: Fuc(a1-2)[Gal(a1-3)]Gal(b1-4)GlcNAc(b1-2)Man(a1-3)[Fuc(a1-2)[Gal(a1-3)]Gal(b1-4)GlcNAc(b1-2)Man(a1-6)]Man(b1-4)GlcNAc(b1-4)[Fuc(a1-6)]GlcNAc
# Summary of the method: as §1
# [23] = molecular target: Fuc(a1-2)[Gal(a1-3)]Gal(b1-4)GlcNAc(b1-3)GalNAc
# Summary of the method: as §1
# [24] = molecular target: Fuc(a1-2)[Gal(a1-3)]Gal(b1-4)GlcNAc(b1-3)[Fuc(a1-2)[Gal(a1-3)]Gal(b1-4)GlcNAc(b1-6)]GalNAc
# Summary of the method: as §1
# [25] = molecular target: Fuc(a1-2)[Gal(a1-3)]Gal(b1-4)GlcNAc(b1-6)GalNAc
# Summary of the method: as §1
# [26] = molecular target: Fuc(a1-2)[Gal(a1-3)]Gal(b1-4)[Fuc(a1-3)]Glc
# Summary of the method: as §1
# [27] = molecular target: Fuc(a1-2)[Gal(a1-3)]Gal(b1-4)[Fuc(a1-3)]GlcNAc
# Summary of the method: as §1
# [28] = molecular target: Fuc(a1-2)[Gal(a1-3)]Gal(b1-4)[Fuc(a1-3)]GlcNAc(b1-3)GalNAc
# Summary of the method: as §1
# [29] = molecular target: Fuc(a1-2)[Gal(a1-4)]Gal(b1-4)GlcNAc
# Summary of the method: as §1
# [30] = molecular target: Fuc(a1-2)[GalNAc(a1-3)]Gal
# Summary of the method: as §1
# [31] = molecular target: Fuc(a1-2)[GalNAc(a1-3)]Gal(b1-3)GalNAc(a1-3)[Fuc(a1-2)]Gal(b1-4)GlcNAc
# Summary of the method: as §1
# [32] = molecular target: Fuc(a1-2)[GalNAc(a1-3)]Gal(b1-3)GalNAc(b1-3)Gal(a1-4)Gal(b1-4)Glc
# Summary of the method: as §1
# [33] = molecular target: Fuc(a1-2)[GalNAc(a1-3)]Gal(b1-3)GlcNAc
# Summary of the method: as §1
# [34] = molecular target: Fuc(a1-2)[GalNAc(a1-3)]Gal(b1-3)GlcNAc(b1-2)Man(a1-3)[Fuc(a1-2)[GalNAc(a1-3)]Gal(b1-3)GlcNAc(b1-2)Man(a1-6)]Man(b1-4)GlcNAc(b1-4)GlcNAc
# Summary of the method: as §1
# [35] = molecular target: Fuc(a1-2)[GalNAc(a1-3)]Gal(b1-3)GlcNAc(b1-2)Man(a1-3)[Fuc(a1-2)[GalNAc(a1-3)]Gal(b1-3)GlcNAc(b1-2)Man(a1-6)]Man(b1-4)GlcNAc(b1-4)[Fuc(a1-6)]GlcNAc
# Summary of the method: as §1
# [36] = molecular target: Fuc(a1-2)[GalNAc(a1-3)]Gal(b1-3)GlcNAc(b1-3)GalNAc
# Summary of the method: as §1
binder,measurement,setting,value
GS7807G-bfa-506-18-506 (Bacteroides fragilis) (protein) ASCDKFDEINTDPDATTKVTSSLLATGLLLDITSSSASKSFIYDELLAKQMAWGESMEDYQYNVFGRSGFGGYTTLINAQKMVESVSDDNVNAYDGLAHFIKAYKIFYMSMEMGDLPYEEALQGELGLVRPKYNTQKEVMNFILSDLETAYELFSTAKDFDGDPILGGSISKWKKATTAFQLKVLMHLSKKESDADLKVKERFARIVASGSLMESNEDNLQMKYADKANTVYPFHNTNTKHAGYAMLSTMLIDKFKATGDIRMFYYAKPAKAKLNEGVTADSWDAYIGTDPSLPFEQIEKAYATEQYSGFNARYTDYPSGEPVVRLGYAEQNFILAEAAVRGWISGDASAYYKKAIRAHMEFIASNTPDEEVYHHGHPITEEAIAAFLETPAIQLSGEKEEDIEKILTQRYLASFMQHPYDVYYDYRRTGYPVLPINPATNRNTMNDRLPMRWMYPKSESDYNLEHQNEALERQFGGVDDVNKLMWILQ,glycan array binding signal (z-score),[1],0.243
same,glycan array binding signal (z-score),[2],-0.695
same,glycan array binding signal (z-score),[3],-0.553
same,glycan array binding signal (z-score),[4],-0.767
same,glycan array binding signal (z-score),[5],0.907
same,glycan array binding signal (z-score),[6],-0.781
same,glycan array binding signal (z-score),[7],-0.982
same,glycan array binding signal (z-score),[8],-0.497
same,glycan array binding signal (z-score),[9],-0.202
same,glycan array binding signal (z-score),Fuc(a1-2)Gal6S(b1-4)Glc,-0.128
same,glycan array binding signal (z-score),[10],0.656
same,glycan array binding signal (z-score),Fuc(a1-2)[Gal(a1-3)]Gal,0.293
same,glycan array binding signal (z-score),[11],-0.509
same,glycan array binding signal (z-score),[12],-0.536
same,glycan array binding signal (z-score),[13],-0.967
same,glycan array binding signal (z-score),[14],-0.106
same,glycan array binding signal (z-score),[15],1.27
same,glycan array binding signal (z-score),[16],-0.998
same,glycan array binding signal (z-score),[17],0.558
same,glycan array binding signal (z-score),[18],-0.745
same,glycan array binding signal (z-score),[19],-0.733
same,glycan array binding signal (z-score),[20],-0.104
same,glycan array binding signal (z-score),[21],3.93
same,glycan array binding signal (z-score),[22],-0.543
same,glycan array binding signal (z-score),[23],-0.69
same,glycan array binding signal (z-score),[24],0.293
same,glycan array binding signal (z-score),[25],-0.343
same,glycan array binding signal (z-score),[26],-0.909
same,glycan array binding signal (z-score),[27],0.197
same,glycan array binding signal (z-score),[28],0.639
same,glycan array binding signal (z-score),[29],-0.848
same,glycan array binding signal (z-score),[30],0.227
same,glycan array binding signal (z-score),[31],-0.151
same,glycan array binding signal (z-score),[32],-0.596
same,glycan array binding signal (z-score),[33],-0.659
same,glycan array binding signal (z-score),[34],0.114
same,glycan array binding signal (z-score),[35],-0.493
same,glycan array binding signal (z-score),[36],0.453

# Pulled one by one from above:
binder,measurement,setting,value
GS7807G-bfa-506-18-506 (Bacteroides fragilis) (protein) ASCDKFDEINTDPDATTKVTSSLLATGLLLDITSSSASKSFIYDELLAKQMAWGESMEDYQYNVFGRSGFGGYTTLINAQKMVESVSDDNVNAYDGLAHFIKAYKIFYMSMEMGDLPYEEALQGELGLVRPKYNTQKEVMNFILSDLETAYELFSTAKDFDGDPILGGSISKWKKATTAFQLKVLMHLSKKESDADLKVKERFARIVASGSLMESNEDNLQMKYADKANTVYPFHNTNTKHAGYAMLSTMLIDKFKATGDIRMFYYAKPAKAKLNEGVTADSWDAYIGTDPSLPFEQIEKAYATEQYSGFNARYTDYPSGEPVVRLGYAEQNFILAEAAVRGWISGDASAYYKKAIRAHMEFIASNTPDEEVYHHGHPITEEAIAAFLETPAIQLSGEKEEDIEKILTQRYLASFMQHPYDVYYDYRRTGYPVLPINPATNRNTMNDRLPMRWMYPKSESDYNLEHQNEALERQFGGVDDVNKLMWILQ,glycan array binding signal (z-score),[19],-0.733
same,glycan array binding signal (z-score),[35],-0.493
same,glycan array binding signal (z-score),[20],-0.104
